For at least one compound, name, drawing or mass did not settle the structure.
Legend:
Assay type in all cases: in vivo, human
[1] = tested on: obsessive compulsive disorder (OCD), anxiety, paranoid delusions; assay: Case History 5: patient treated with gabapentin
Source text: The patient is a single person who is still studying at University. Their medical history is unremarkable. The patient was first seen by a psychiatrist and followed for obsessive compulsive disorder (OCD) in the United Emirates; the patient tended toward isolativeness. Also, they developed a tic disorder and complained of anxiety.
In February 1994, the patient developed intense paranoid ideation and became more withdrawn. Over the previous two years, the patient had suffered from paranoid delusions and auditory hallucinations. They stopped taking their neuroleptic medication in mid-December while they were a University student. They were admitted as an inpatient in March 1994. […] The patient was discharged with clozapine and lorazepam. In June, the patient was referred for Follow-Up where an anticonvulsant drug, valproic acid was added to potentiate clozapine, but discontinued in August 1994.
In February 1995, gabapentin was added to the patient's treatment. […] Currently, the patient takes clozpine 125 mg BID, […], gabapentin 500 mg HS and procyclidine 5 mg BID.

[2] = tested on: chronic severe generalized anxiety disorder with marked insomnia and depression; assay: Case History 1: patient treated with gabapentin
Protocol: The patient is a retired patient. […] In their medical history, there is a cervical laminectomy (1988). They report residual pain and weakness in the right arm and right leg and chronic neck pain. They have a history of three months of depression with no treatment (1989) and a history of chronic severe generalized anxiety disorder.
In December 1994, the patient had been taking a benzodiazepine, clonazepam 2.5 mg/day, for the last five years when their anxiety and depression became much worse. Anxiety was associated with marked insomnia and significant situational stressors (financial and marital). […] Patient is now functional for the first time in many years. Improvement continues as of this day. […] Improvement persists.

[3] = tested on: panic attacks and anxiety disorder; assay: Case History 3: patient treated with gabapentin
Protocol: A person is a single who is working as a freelance writer. […] They were hospitalized because of severe depression and a suicide attempt by drug overdose. The patient has taken lithium since 1973. They have also had panic attacks since 1978.
In January 1994, the patient was depressed and valproic acid was initiated with lithium and clonazepam. […] Gabapentin 300 mg BID up to 300 mg TID was initiated in their treatment.

[4] = tested on: fast cycling manic depressive illness with anxiety associated with depression; assay: Case History 2: patient treated with gabapentin
Protocol: A person is a retired patient with a family history of bipolar affective illness. The patient has been treated for manic-depressive illness since they experienced their first depressive episode and was hospitalized several times for mania and depression.
[…]), the patient was hospitalized for an episode of acute mania. After that, they were treated with lithium, tryptophan, nicotinamide, clonazepam, Premarin®, Provera® and Overal®. The patient was re-hospitalized for a manic episode […] (1982). They have been treated with various psychotropic drugs, especially: lithium, tryptophan, and clonazepam. Lithium was discontinued in October 1983 until 1985. They were given tryptophan, lecithin and female hormones for control of a severe rapid-cycling bipolar disorder. Fluoxetine, as well as, antiepileptics (carbamazepine and valproic acid) were also added to their treatment.
Due to the patient's fast cycling manic depressive illness, their medication is regularly adjusted. Since 1991 magnesium was added to their regular medication. […] In April 1993, risperidone was initiated and in March 1994 lithium was discontinued. They are currently treated with risperidone, gabapentin 1800 mg QD (initiated in August 1994), clonazepam and ritanserin was recently added to their treatment in an attempt to improve their mood. They also take magnesium and lecithin.

[5] = tested on: paranoid schizophrenia with agoraphobia, anxiety and panic attacks; assay: Case History 4: patient treated with gabapentin; settings: gabapentin 100 mg QD increased to 600 mg QD with valproic acid, risperidone, procyclidine
[6] = gabapentin initiated 300 mg/day and slowly increased, patient on clonazepam
[7] = gabapentin 1800 mg QD with risperidone, clonazepam

In the case of `NCC1(CC(=O)O)CCCCC1` [gabapentin, (1-aminomethyl)-1-cyclohexaneacetic acid], the “level of anxiety (generalized anxiety) and OCD” value ([1]; gabapentin 500 mg HS with clozapine, fluoxetine, procyclidine) is reported as “marked reduction”, the “obsession, anxiety and sleep” value ([1]; gabapentin 500 mg HS, as opposed to valproic acid) is reported as “main beneficial effect” and the mood ([2]; gabapentin initiated 300 mg/day and slowly increased) is reported as “improvement in mood”. The anxiety [2, 6] was “anxiety decreased”, the sleep [2, 6] was “sleep improved” and the analgesic effect ([2]; patient with residual pain and chronic neck pain after cervical laminectomy) was “analgesic effect”. The “psychological dependency on benzodiazepines” value ([2]; since the intake of gabapentin) was “significantly decreased”, the effect of discontinuation ([3]; discontinuation of gabapentin) was “return of panic attacks and anxiety disorder” and the “panic attacks and anxiety” value ([3]; patient remained on gabapentin (300 mg BID up to 300 mg TID, decreased to 100 mg HS)) was “persistent beneficial effect”. For the same molecule, the “effect of decreasing the dose” value ([4]; every time gabapentin is decreased) was “severe anxiety symptoms return”, the “anxiety associated with depression” value [4, 7] was “beneficial effects” and the sleep [4, 7] was “beneficial effects”. For the same molecule, the agoraphobia [5] was “no longer has agoraphobia”, the “level of anxiety and panic attacks” value [5] was “decrease the level of anxiety and panic attacks” and the potentiation of neuroleptics [5] was “potentiate neuroleptics”. The sleep [5] was “improve sleep”.
